Values from PubChem BioAssay AID686943 (Drosophila RNAi Screening Center, 2013)
The deposit covers about 23,000 reagents; shown is an unselected part of those that have a named target and a result. 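Extra replicates exist only for a retested subset of genes; insulin dose and duration not given; both raised and lowered dpERK matter.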 Reagents against one gene are numbered here. Names joined by + are all predicted targets of the reagent. Not all columns of the deposit are shown. No sequences are given here. Not given: the amount of reagent, the time to read-out.

- Purpose: 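Knockdowns that increase or decrease active ERK after insulin receptor stimulation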 (primary screen)
- Cells: Drosophila S2R+ haemocyte-like cells expressing YFP-tagged ERK (Rolled)
- Reagent: long dsRNA against Drosophila genes
- Challenge: insulin stimulation versus unstimulated cells; dose and duration not given
- Measured: 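Antibody staining for doubly phosphorylated ERK divided by ERK-YFP signal, as plate z-scores, in insulin-treated and untreated cells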
- Direction: replicate 1, z-score of dpERK with insulin: higher = more active ERK per ERK-YFP after insulin

For glob3 the deposit lists replicate 1, z-score of dpERK with insulin 1.01.
After knock-down of lcs, the screen gave replicate 1, z-score of dpERK with insulin 0.46.
Against Lcp2 the deposit lists replicate 1, z-score of dpERK with insulin -0.22.
With knock-down of Atg3 #1, the record shows replicate 1, z-score of dpERK with insulin 0.84.
For Atg3 #2, the entry reads replicate 1, z-score of dpERK with insulin 0.34.
Against jub, the entry reads replicate 1, z-score of dpERK with insulin -0.7.
After knock-down of Taf12L, the screen gave replicate 1, z-score of dpERK with insulin -0.07.
Knock-down of CG14826 came out at: replicate 1, z-score of dpERK with insulin -0.06.
tutl #1 gave replicate 1, z-score of dpERK with insulin 0.14.
With knock-down of tutl #2, the screen gave replicate 1, z-score of dpERK with insulin 1.24.
For tutl #3 the deposit lists replicate 1, z-score of dpERK with insulin -1.49.
Against Lst8, the values are replicate 1, z-score of dpERK with insulin -0.19.
With knock-down of Or65b, the screen gave replicate 1, z-score of dpERK with insulin 0.38.
Against Vdup1, the entry reads replicate 1, z-score of dpERK with insulin -0.45.
Nrx-1 scored replicate 1, z-score of dpERK with insulin 0.03.
For CG2694, the entry reads replicate 1, z-score of dpERK with insulin 0.4.
After knock-down of PIG-Wa, the screen gave replicate 1, z-score of dpERK with insulin 0.18.
With knock-down of CG9917, the record shows replicate 1, z-score of dpERK with insulin 0.2.
mip130 gave replicate 1, z-score of dpERK with insulin 0.
Against siz #1 the deposit lists replicate 1, z-score of dpERK with insulin 0.77.
siz #2 scored replicate 1, z-score of dpERK with insulin 0.59.
With knock-down of siz #3 the results were replicate 1, z-score of dpERK with insulin -0.17.
Knock-down of CG12998 gave: replicate 1, z-score of dpERK with insulin 0.4.
Silencing of CG3270 came out at: replicate 1, z-score of dpERK with insulin 0.32.
Depletion of Pof resulted in: replicate 1, z-score of dpERK with insulin 0.04.
With knock-down of Pka-C3 #1, the record shows replicate 1, z-score of dpERK with insulin -0.3.
Knock-down of Pka-C3 #2 gave: replicate 1, z-score of dpERK with insulin 0.89.
Depletion of Syx17 came out at: replicate 1, z-score of dpERK with insulin 0.27.
Knock-down of CG42662 + CG30080 came out at: replicate 1, z-score of dpERK with insulin 1.91.
Against eEF1beta, the entry reads replicate 1, z-score of dpERK with insulin 1.13.
Knock-down of Arpc3B gave: replicate 1, z-score of dpERK with insulin 0.

No new results follow: entries from further up.
Pka-C3 #1: replicate 1, z-score of dpERK with insulin = -0.3
Pka-C3 #2: replicate 1, z-score of dpERK with insulin = 0.89
Syx17: replicate 1, z-score of dpERK with insulin = 0.27
CG42662 + CG30080: replicate 1, z-score of dpERK with insulin = 1.91
eEF1beta: replicate 1, z-score of dpERK with insulin = 1.13
